According to the supplement of paper PMC10727501:
Some of the results follow. This data set is noisy: repeats of one test often differ as much as different tests do.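 Free-swimming zebrafish larvae were scored for O-bend response probability to dark flashes (naive: first five; training: remaining flashes of four 60-flash blocks; test: later 60-flash block) and for turning toward alternating leftward/rightward LED motion (OMR). Six treated larvae were compared with sixty 0.1% DMSO controls; |SSMD|≥2 defined a hit.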

Tests used:
Settings in all cases: 10 µM; pre-incubation: 30-90 min
[1] = tested on: Danio rerio larvae (5 dpf, TLF); assay: OMR-Perf (SSMD vs DMSO vehicle); higher = higher than vehicle (e.g. higher dark-flash O-bend response probability, or better optomotor performance)
[2] = tested on: Danio rerio larvae (5 dpf, TLF); assay: Prob-Test (SSMD vs DMSO vehicle); higher = higher than vehicle (e.g. higher dark-flash O-bend response probability, or better optomotor performance)
[3] = tested on: Danio rerio larvae (5 dpf, TLF); assay: Prob-Naive (SSMD vs DMSO vehicle); higher = higher than vehicle (e.g. higher dark-flash O-bend response probability, or better optomotor performance)
[4] = tested on: Danio rerio larvae (5 dpf, TLF); assay: Prob-Train (SSMD vs DMSO vehicle); higher = higher than vehicle (e.g. higher dark-flash O-bend response probability, or better optomotor performance)

## Cc1noc(-c2ccc(CSCCC(=O)O)cc2)c1NC(=O)OC(C)c1ccccc1Cl (centres undefined)
[1]
  OMR-Perf: 0.308
[2]
  Prob-Test: 0.185
[3]
  Prob-Naive: -0.269
[4]
  Prob-Train: -0.0412

## CCCCc1nc2cc(/C=C/C(=O)NO)ccc2n1CCN(CC)CC [Pracinostat (SB939)]
[1]
  OMR-Perf: -0.174
[2]
  Prob-Test: 0.585
[3]
  Prob-Naive: -0.0813
[4]
  Prob-Train: -0.0462

## Cc1cc(=O)oc2cc(O)ccc12 [4-Methylumbelliferone (4-MU)]
[1]
  OMR-Perf: 0.167
[2]
  Prob-Test: 0.393
[3]
  Prob-Naive: 0.285
[4]
  Prob-Train: 0.355

## Cc1n[nH]c2ccc(-c3cncc(OC[C@@H](N)Cc4ccccc4)c3)cc12
[1]
  OMR-Perf: 0.0731
[2]
  Prob-Test: 0.184
[3]
  Prob-Naive: -0.13
[4]
  Prob-Train: -0.436

## Cc1cnc(-c2cc(N3CCN(C(=O)CCS(C)(=O)=O)CC3)ncc2Cl)c(C)c1
[1]
  OMR-Perf: -0.337
[2]
  Prob-Test: -0.381
[3]
  Prob-Naive: -0.243
[4]
  Prob-Train: -0.303

## O=C(O)c1cc2cccc([N+](=O)[O-])c2[nH]1
[1]
  OMR-Perf: -0.14
[2]
  Prob-Test: 0.206
[3]
  Prob-Naive: -0.294
[4]
  Prob-Train: 0.0945

## O=C([O-])[C@H](CC(=O)N1C[C@H]2CCCC[C@H]2C1)Cc1ccccc1.O=C([O-])[C@H](CC(=O)N1C[C@H]2CCCC[C@H]2C1)Cc1ccccc1.[Ca+2] [Mitiglinide calcium]
[1]
  OMR-Perf: -0.0967
[2]
  Prob-Test: -0.328
[3]
  Prob-Naive: 0.421
[4]
  Prob-Train: -0.206

## CCCCC(=O)O[C@@]1(C(=O)CO)[C@@H](C)C[C@H]2[C@@H]3CCC4=CC(=O)C=C[C@]4(C)[C@]3(F)[C@H](O)C[C@@]21C [Betamethasone valerate (Betnovate)]
[1]
  OMR-Perf: 0.112
[2]
  Prob-Test: -0.457
[3]
  Prob-Naive: 0.312
[4]
  Prob-Train: -0.104

## CN1CCN2c3ccccc3Cc3ccccc3C2C1.Cl (centres undefined) [Mianserin HCl]
[1]
  OMR-Perf: -1.04
[2]
  Prob-Test: -1.66
[3]
  Prob-Naive: 0.614
[4]
  Prob-Train: -0.564

## CCCCOc1ccc(CC(=O)NO)cc1 [Bufexamac]
[1]
  OMR-Perf: -0.557
[2]
  Prob-Test: 0.0158
[3]
  Prob-Naive: -0.743
[4]
  Prob-Train: -0.866

## Cl.Cl.O=S(=O)(NCCNC/C=C/c1ccc(Br)cc1)c1cccc2cnccc12
[1]
  OMR-Perf: 0.244
[2]
  Prob-Test: -0.895
[3]
  Prob-Naive: 0.313
[4]
  Prob-Train: -0.63

## O=C(O)CCc1nc2ccccc2[nH]1 [Procodazole]
[1]
  OMR-Perf: 0.141
[2]
  Prob-Test: -0.334
[3]
  Prob-Naive: 0.271
[4]
  Prob-Train: -0.183

## COc1ccc(C[C@H](C)NC[C@@H](O)c2ccc(O)c(NC=O)c2)cc1.COc1ccc(C[C@H](C)NC[C@@H](O)c2ccc(O)c(NC=O)c2)cc1.O=C(O)/C=C/C(=O)O [Formoterol Hemifumarate]
[1]
  OMR-Perf: -0.0404
[2]
  Prob-Test: -0.653
[3]
  Prob-Naive: 0.129
[4]
  Prob-Train: -0.111

## CCNC(=O)Nc1ccc(-c2nc3c(c(N4CCOC[C@@H]4C)n2)CCN(C2COC2)C3)cc1
[1]
  OMR-Perf: 0.131
[2]
  Prob-Test: 0.172
[3]
  Prob-Naive: 0.135
[4]
  Prob-Train: 0.841

## COc1cc2c(Nc3ccc(NC(=O)c4ccccc4)cc3)ncnc2cc1OCCCN1CCOCC1
[1]
  OMR-Perf: -0.255
[2]
  Prob-Test: -0.387
[3]
  Prob-Naive: 0.437
[4]
  Prob-Train: -0.586

## Nc1cccc(-c2cc3c(Oc4cccc(O)c4)ncnc3[nH]2)c1
[1]
  OMR-Perf: -0.759
[2]
  Prob-Test: -0.17
[3]
  Prob-Naive: 0.313
[4]
  Prob-Train: -0.00494

## COc1ccc(-c2ccc3ncc4c(c3c2)n(-c2ccc(N3CCNCC3)c(C(F)(F)F)c2)c(=O)n4C)cn1.O=C(O)/C=C\C(=O)O
[1]
  OMR-Perf: -0.462
[2]
  Prob-Test: -1.19
[3]
  Prob-Naive: -0.567
[4]
  Prob-Train: -1.26

## CCn1nc(C(=O)O)c(=O)c2cc3c(cc21)OCO3 [Cinoxacin]
[1]
  OMR-Perf: -0.385
[2]
  Prob-Test: -0.129
[3]
  Prob-Naive: 0.0912
[4]
  Prob-Train: 0.0698

## CCn1c(N)c(C(=O)NC)c(=O)c2ccc(C#C[C@@](C)(O)COC)nc21
[1]
  OMR-Perf: 0.515
[2]
  Prob-Test: -0.169
[3]
  Prob-Naive: 0.145
[4]
  Prob-Train: 0.189

## O=C(NOCC(O)CO)c1cc(Br)c(F)c(F)c1Nc1ccc(I)cc1F (centres undefined)
[1]
  OMR-Perf: 0.043
[2]
  Prob-Test: -1.61
[3]
  Prob-Naive: 0.564
[4]
  Prob-Train: -0.726

## CC(C)c1cc(-c2n[nH]c(=O)n2-c2ccc3c(ccn3C)c2)c(O)cc1O [Ganetespib (STA-9090)]
[1]
  OMR-Perf: -0.209
[2]
  Prob-Test: -0.172
[3]
  Prob-Naive: 0.161
[4]
  Prob-Train: -0.765

## CCCN1CCCC[C@H]1C(=O)Nc1c(C)cccc1C.Cl [Ropivacaine HCl]
[1]
  OMR-Perf: -0.00365
[2]
  Prob-Test: 0.629
[3]
  Prob-Naive: -0.186
[4]
  Prob-Train: 0.278

## COc1cc2c(N3CCN(C(=O)Nc4ccc(OC(C)C)cc4)CC3)ncnc2cc1OCCCN1CCCCC1 [Tandutinib (MLN518)]
[1]
  OMR-Perf: 0.409
[2]
  Prob-Test: -0.0257
[3]
  Prob-Naive: 0.35
[4]
  Prob-Train: 0.486

## Cc1c(Cl)cccc1Nc1ccccc1C(=O)O [Tolfenamic Acid]
[1]
  OMR-Perf: -0.278
[2]
  Prob-Test: -1.12
[3]
  Prob-Naive: -2.5
[4]
  Prob-Train: -2.19

## CN(C)c1nc(N(C)C)nc(N(C)C)n1 [Altretamine]
[1]
  OMR-Perf: 0.111
[2]
  Prob-Test: 0.18
[3]
  Prob-Naive: -0.424
[4]
  Prob-Train: 0.131

## CCC[C@@H]1C[C@@H](C(=O)N[C@H]([C@H]2O[C@@H](SC)[C@H](OP(=O)(O)O)[C@@H](O)[C@H]2O)[C@H](C)Cl)N(C)C1 [Clindamycin phosphate]
[1]
  OMR-Perf: -0.247
[2]
  Prob-Test: 0.213
[3]
  Prob-Naive: -0.491
[4]
  Prob-Train: -0.301
